Consider 42 sequences from publication PMC7819943, “Rice protein-binding microarrays: a tool to detect cis-acting elements near promoter regions in rice”.

The list shows a part of the results.

This assay concerns the target T1, OsSMF1 (Oryza sativa, UniProt Q6ZLB0 1-436).
T1 sequence: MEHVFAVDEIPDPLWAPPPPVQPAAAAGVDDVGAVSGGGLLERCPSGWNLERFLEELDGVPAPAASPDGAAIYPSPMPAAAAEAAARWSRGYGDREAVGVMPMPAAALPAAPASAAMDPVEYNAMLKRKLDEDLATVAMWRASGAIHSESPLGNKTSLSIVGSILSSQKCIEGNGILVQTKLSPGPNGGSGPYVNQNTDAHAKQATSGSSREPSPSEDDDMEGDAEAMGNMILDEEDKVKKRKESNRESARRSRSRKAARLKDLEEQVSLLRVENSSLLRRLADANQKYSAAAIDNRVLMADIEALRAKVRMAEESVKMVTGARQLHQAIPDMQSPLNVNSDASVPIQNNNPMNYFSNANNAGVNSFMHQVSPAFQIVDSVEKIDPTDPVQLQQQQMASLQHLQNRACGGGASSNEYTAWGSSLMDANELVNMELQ
The experiment in a line: protein-binding microarray (RPBM); PBS, 2% BSA, 51.3 ng/ul salmon testes DNA, 50 uM zinc acetate, 200 nM TF, 25 C, 1 h; high values mean tight binding. Conditions: protein: recombinant; tags: N-terminal polyhistidine and DsRed monomer fusion (pET32a); chain copies: 2; label: CyDye5-dUTP incorporated in the synthesized complementary strand; 3' TTTTT single-stranded linker to array surface; dsDNA, one strand shown. In a few lines:
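A custom Agilent array was converted to double-stranded form by primer extension with Cy5-dUTP and blocked with 2% BSA. Protein at 200 nM in PBS with 2% BSA, salmon testes DNA and 50 µM zinc acetate was applied for 1 h at 25 °C, followed by washing. The proteins were polyhistidine–DsRed N-terminal fusions of transcription factors, expressed in E. coli BL21-CodonPlus and Ni–NTA-purified. The binding signal is per-feature fluorescence intensity (arbitrary units) from an Axon 4000B scanner.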
For the sequence “AGCAATTAGATCCTTTTGCATTGGATGGTAGTTTGCCAATCGGAGTCACCTAGTGCAG”, the binding signal is 28600 fluorescence intensity (a.u.).

Turning to “CTAACATGTTCATGCTGACTCAACAGCCACATCGAACAAACGGAGTCACCTAGTGCAG”, the binding signal is 9780 fluorescence intensity (a.u.).

Take “CTCCCCTCCCTTCGCCTCCGGCTCCTATCCCATCCGCATACGGAGTCACCTAGTGCAG”: the binding signal is 38100 fluorescence intensity (a.u.).

“TGCAAAATAACCAGTGTCGACGCGGCCGCACCTGCGCTCGCGGAGTCACCTAGTGCAG”: the binding signal was 37900 fluorescence intensity (a.u.).

For the sequence “TTTGTGCATGCTTTATGTGTGATTTAACTTGGATAAATTTCGGAGTCACCTAGTGCAG”, the binding signal was 3190 fluorescence intensity (a.u.).

Consider “TTTATATCCATAAATAAATAGATATACACAGCTAAAGATCCGGAGTCACCTAGTGCAG”, for which the binding signal was 4930 fluorescence intensity (a.u.).

For the sequence “AGGACGCGACGTTCAGCGGGGCGGACCTGGCGGCGCTGATCGGAGTCACCTAGTGCAG”, the binding signal is 36900 fluorescence intensity (a.u.).

Take “TCCAGTTTTGGTCTGGGTGATGTGTCATGTTCTGATTGGCCGGAGTCACCTAGTGCAG”: the binding signal is 12300 fluorescence intensity (a.u.).

In the case of “CTTTTACTTTGTCATTACTTGGTATATCCACAGTTTGTCTCGGAGTCACCTAGTGCAG”, the binding signal was 3860 fluorescence intensity (a.u.).

As for “CTAGCAGCATGACGCATTGACGCAGACGGAGTACTCGAGACGGAGTCACCTAGTGCAG”, the binding signal was 3970 fluorescence intensity (a.u.).

Regarding “ATTAGATTTACCGCAAACAATGACGTCCTCCCTGCCTGGACGGAGTCACCTAGTGCAG”, the binding signal was 4900 fluorescence intensity (a.u.).

Consider “GGAACCTTGCAATGTTTAACATTTGTCAAACTGTGTGGCACGGAGTCACCTAGTGCAG”, for which the binding signal is 4780 fluorescence intensity (a.u.).

For the sequence “GGTAGAAGTCCTGTCCGTGCTCCTGAAAGAAGTGAAAGCACGGAGTCACCTAGTGCAG”, the binding signal was 36900 fluorescence intensity (a.u.).

Turning to “ATGCTTTACCGTCTGACAACTCAGGTTGGACATTCTGTGGCGGAGTCACCTAGTGCAG”, the binding signal was 3480 fluorescence intensity (a.u.).

As for “TTCATAGGCTTTGTGGTGGTGCTCGATTGGATAATTCTTCCGGAGTCACCTAGTGCAG”, the binding signal was 3440 fluorescence intensity (a.u.).

Take “ATTCATCCTGGAGTGGACAAAGTCATCACAGGCGCCTCGCCGGAGTCACCTAGTGCAG”: the binding signal was 3650 fluorescence intensity (a.u.).

Turning to “GCAGGAGCAAAGCGCTTACTTTTGCCTCACACTGTATAGTCGGAGTCACCTAGTGCAG”, the binding signal is 45400 fluorescence intensity (a.u.).

In the case of “CATAATCGACTTTTAACATTTATTTTACAGTGATGGTTTTCGGAGTCACCTAGTGCAG”, the binding signal was 3490 fluorescence intensity (a.u.).

In the case of “ACTCTACAAGTCGACATTAACGTTGTGACAGTGTTTCTTTCGGAGTCACCTAGTGCAG”, the binding signal was 3800 fluorescence intensity (a.u.).

With “CAATGAGACCGCGTATTAATTCAGGTCACCCAAATTTGCACGGAGTCACCTAGTGCAG”, the binding signal is 7490 fluorescence intensity (a.u.).

Consider “GAGCAAGGCGATGCTACTTGTATGTGACTGTACGTGACGCCGGAGTCACCTAGTGCAG”, for which the binding signal is 5600 fluorescence intensity (a.u.).

As for “TACTCTCTTCGTTTCATATTATAAGTCGTTTGACTCTTTTCGGAGTCACCTAGTGCAG”, the binding signal was 3230 fluorescence intensity (a.u.).

As to “TGAGACCGGCAGCACTCTAGTCAATACTCTATGACTTCTTCGGAGTCACCTAGTGCAG”, the binding signal was 4290 fluorescence intensity (a.u.).

In the case of “CCATGTCGCCGCCTTCCCGTCCCCATCCGCGTCGCCACCGCGGAGTCACCTAGTGCAG”, the binding signal was 6350 fluorescence intensity (a.u.).

In the case of “GCCAACACACGTGGTACCTGTACTGGGACACGCATGCTGACGGAGTCACCTAGTGCAG”, the binding signal was 7750 fluorescence intensity (a.u.).

Take “ATAGAAGGAAGGATTATTACTATAATAAAATGATAAACAACGGAGTCACCTAGTGCAG”: the binding signal is 38600 fluorescence intensity (a.u.).

Take “TTCTTTACAACTATACCAGTGAGGTATGAGGTGCCTATCTCGGAGTCACCTAGTGCAG”: the binding signal is 23600 fluorescence intensity (a.u.).

For “TGATCTGATGGCTTAAAATTGTTGATGATGTGGCTTCTTGCGGAGTCACCTAGTGCAG”, the binding signal was 11300 fluorescence intensity (a.u.).

As for “CTGGATCGAATTGCCACGTAAGCGCCACGTCAGTGCCACACGGAGTCACCTAGTGCAG”, the binding signal is 20700 fluorescence intensity (a.u.).

For the sequence “TGACCAGTGCGGATTCCATGTGTGCCACAACATGTGCCTTCGGAGTCACCTAGTGCAG”, the binding signal is 4130 fluorescence intensity (a.u.).

For the sequence “GACTTCTCTCGCGCCGGCCACCGTCACCTCACACAGGCCCCGGAGTCACCTAGTGCAG”, the binding signal is 3420 fluorescence intensity (a.u.).

Turning to “GGTTCGCAAACCCATTACCTTGAGTCATATTGTGTGGCAACGGAGTCACCTAGTGCAG”, the binding signal is 4800 fluorescence intensity (a.u.).

Regarding “GATTTCAGAACATGGATTGACGTGTATTTCGGTGAATTTGCGGAGTCACCTAGTGCAG”, the binding signal is 7080 fluorescence intensity (a.u.).

For the sequence “ATCGGACGGTGGCAGGGCTCTTCCCGCCCACGCCCAATACCGGAGTCACCTAGTGCAG”, the binding signal was 4380 fluorescence intensity (a.u.).

Consider “GGCAGTATGCTGTATGCAATAGTCACGGGTACATAGGGTGCGGAGTCACCTAGTGCAG”, for which the binding signal is 3270 fluorescence intensity (a.u.).

Turning to “GATTTGTCAAAGATTCTCTCTTCACGATAACATGGTTTAGCGGAGTCACCTAGTGCAG”, the binding signal was 20600 fluorescence intensity (a.u.).

With “CGCGCGTGGTGGTTGGGTGTGCGGGGTGTGCAAACCCTAGCGGAGTCACCTAGTGCAG”, the binding signal was 3980 fluorescence intensity (a.u.).

For “CTGCACTGTTGTCACCTACTACCCCAAGGGTGAGTTCAGCCGGAGTCACCTAGTGCAG”, the binding signal is 22800 fluorescence intensity (a.u.).

Regarding “GTCCACCACCCACCTCGTACGTGTTCTGTCCACACACGCGCGGAGTCACCTAGTGCAG”, the binding signal was 4300 fluorescence intensity (a.u.).

Consider “GGGTATAGATGTAACTTTTGTCTTGAGTTAACACCATCACCGGAGTCACCTAGTGCAG”, for which the binding signal is 14500 fluorescence intensity (a.u.).

As for “AAGTAGTACTATATATATATATGTGTACAAACATTACTTCCGGAGTCACCTAGTGCAG”, the binding signal was 3170 fluorescence intensity (a.u.).

“GGCTTTACTTGTCATGTGCTCTTGTTAATATTCTCTGTTGCGGAGTCACCTAGTGCAG”: the binding signal is 3680 fluorescence intensity (a.u.).
